In patent publication US6034097A, “Isoquinolines useful as analgesics” (Astra AB, priority 1996, dated 2000):

Experiment: In vitro stability in rat whole blood (RWB) at 37° C.
Type: in vitro ADME
Conditions: extraction of supernatant, HPLC
Experimental: In vitro stability of the compounds of the invention in rat whole blood (RWB) at 37° C. and in kidney brush border protease (KBBP) at 37° C.
The compound was initially dissolved in water or in 10% methyl sulfoxide (DMSO)/water to make a stock solution of 10 mg/ml.
The stock solution was added to 15 ml of freshly harvested rat whole blood and incubated at 37° C.
Blanks were prepared without spiking with compounds in rat whole blood.
Aliquots were then taken at specific time intervals, centrifuged, and a fraction of the supernatant was extracted with acetonitrile or with a solution of acetonitrile and 10% acetic acid.
The solvent(s) was(were) removed by evaporation. The resulting residue was analyzed by HPLC.

Structure (SMILES) | % Extraction Efficiency
Cc1cc(O)cc(C)c1CC(N)C(=O)N1Cc2ccccc2C[C@H]1C(=O)NCCCc1ccccc1.O=C(O)C(F)(F)F (stereo partly shown) [compound #5A, 2-(2-Amino-3-(4-Hydroxy-2,6-dimethyl-phenyl)-propionyl)-1,2,3,4-tetrahydro-isoquinoline-3-S-carboxylic acid (3-phenyl-propyl)amide trifluoroacetic salt] | 97.4% ± 2.7
Cc1cc(O)cc(C)c1C[C@H](N)C(=O)N1Cc2ccccc2C[C@H]1C(=O)NCC(O)Cc1ccccc1.O=C(O)C(F)(F)F (stereo partly drawn) [compound #4A, 2-S-(2-Amino-3-(4-hydroxy-2,6-dimethyl-phenyl)-propionyl)-1,2,3,4-tetrahydro-isoquinoline-3-S-carboxylic acid (2-hydroxy-3-phenyl-propyl)amide trifluoroacetic salt] | 93.3% ± 0.87
Cc1cc(O)cc(C)c1C[C@H](N)C(=O)N1Cc2ccccc2C[C@H]1C(=O)NCC(O)Cc1ccccc1.O=C(O)C(F)(F)F (stereo partly drawn) [4B, 2-S-(2-Amino-3-(4-hydroxy-2,6-dimethyl-phenyl)-propionyl)-1,2,3,4-tetrahydro-isoquinoline-3-S-carboxylic acid (2-hydroxy-3-phenyl-propyl)amide trifluoroacetic salt] | 66.7% ± 4.13
Cc1cc(O)cc(C)c1CC(N)C(=O)N1Cc2ccccc2CC1C(=O)NCCCc1ccccc1.O=C(O)C(F)(F)F (stereo not shown) [compound #5B, 2-(2-Amino-3-(4-Hydroxy-2,6-dimethyl-phenyl)-propionyl)-1,2,3,4-tetrahydro-isoquinoline-3-carboxylic acid (3-phenyl-propyl)amide trifluoroacetic salt] | 88.0% ± 0.4
